By UniProt entry, the sequences of proteins in these tests, tags left out.
UniProt Q03164, whole entry, looked up: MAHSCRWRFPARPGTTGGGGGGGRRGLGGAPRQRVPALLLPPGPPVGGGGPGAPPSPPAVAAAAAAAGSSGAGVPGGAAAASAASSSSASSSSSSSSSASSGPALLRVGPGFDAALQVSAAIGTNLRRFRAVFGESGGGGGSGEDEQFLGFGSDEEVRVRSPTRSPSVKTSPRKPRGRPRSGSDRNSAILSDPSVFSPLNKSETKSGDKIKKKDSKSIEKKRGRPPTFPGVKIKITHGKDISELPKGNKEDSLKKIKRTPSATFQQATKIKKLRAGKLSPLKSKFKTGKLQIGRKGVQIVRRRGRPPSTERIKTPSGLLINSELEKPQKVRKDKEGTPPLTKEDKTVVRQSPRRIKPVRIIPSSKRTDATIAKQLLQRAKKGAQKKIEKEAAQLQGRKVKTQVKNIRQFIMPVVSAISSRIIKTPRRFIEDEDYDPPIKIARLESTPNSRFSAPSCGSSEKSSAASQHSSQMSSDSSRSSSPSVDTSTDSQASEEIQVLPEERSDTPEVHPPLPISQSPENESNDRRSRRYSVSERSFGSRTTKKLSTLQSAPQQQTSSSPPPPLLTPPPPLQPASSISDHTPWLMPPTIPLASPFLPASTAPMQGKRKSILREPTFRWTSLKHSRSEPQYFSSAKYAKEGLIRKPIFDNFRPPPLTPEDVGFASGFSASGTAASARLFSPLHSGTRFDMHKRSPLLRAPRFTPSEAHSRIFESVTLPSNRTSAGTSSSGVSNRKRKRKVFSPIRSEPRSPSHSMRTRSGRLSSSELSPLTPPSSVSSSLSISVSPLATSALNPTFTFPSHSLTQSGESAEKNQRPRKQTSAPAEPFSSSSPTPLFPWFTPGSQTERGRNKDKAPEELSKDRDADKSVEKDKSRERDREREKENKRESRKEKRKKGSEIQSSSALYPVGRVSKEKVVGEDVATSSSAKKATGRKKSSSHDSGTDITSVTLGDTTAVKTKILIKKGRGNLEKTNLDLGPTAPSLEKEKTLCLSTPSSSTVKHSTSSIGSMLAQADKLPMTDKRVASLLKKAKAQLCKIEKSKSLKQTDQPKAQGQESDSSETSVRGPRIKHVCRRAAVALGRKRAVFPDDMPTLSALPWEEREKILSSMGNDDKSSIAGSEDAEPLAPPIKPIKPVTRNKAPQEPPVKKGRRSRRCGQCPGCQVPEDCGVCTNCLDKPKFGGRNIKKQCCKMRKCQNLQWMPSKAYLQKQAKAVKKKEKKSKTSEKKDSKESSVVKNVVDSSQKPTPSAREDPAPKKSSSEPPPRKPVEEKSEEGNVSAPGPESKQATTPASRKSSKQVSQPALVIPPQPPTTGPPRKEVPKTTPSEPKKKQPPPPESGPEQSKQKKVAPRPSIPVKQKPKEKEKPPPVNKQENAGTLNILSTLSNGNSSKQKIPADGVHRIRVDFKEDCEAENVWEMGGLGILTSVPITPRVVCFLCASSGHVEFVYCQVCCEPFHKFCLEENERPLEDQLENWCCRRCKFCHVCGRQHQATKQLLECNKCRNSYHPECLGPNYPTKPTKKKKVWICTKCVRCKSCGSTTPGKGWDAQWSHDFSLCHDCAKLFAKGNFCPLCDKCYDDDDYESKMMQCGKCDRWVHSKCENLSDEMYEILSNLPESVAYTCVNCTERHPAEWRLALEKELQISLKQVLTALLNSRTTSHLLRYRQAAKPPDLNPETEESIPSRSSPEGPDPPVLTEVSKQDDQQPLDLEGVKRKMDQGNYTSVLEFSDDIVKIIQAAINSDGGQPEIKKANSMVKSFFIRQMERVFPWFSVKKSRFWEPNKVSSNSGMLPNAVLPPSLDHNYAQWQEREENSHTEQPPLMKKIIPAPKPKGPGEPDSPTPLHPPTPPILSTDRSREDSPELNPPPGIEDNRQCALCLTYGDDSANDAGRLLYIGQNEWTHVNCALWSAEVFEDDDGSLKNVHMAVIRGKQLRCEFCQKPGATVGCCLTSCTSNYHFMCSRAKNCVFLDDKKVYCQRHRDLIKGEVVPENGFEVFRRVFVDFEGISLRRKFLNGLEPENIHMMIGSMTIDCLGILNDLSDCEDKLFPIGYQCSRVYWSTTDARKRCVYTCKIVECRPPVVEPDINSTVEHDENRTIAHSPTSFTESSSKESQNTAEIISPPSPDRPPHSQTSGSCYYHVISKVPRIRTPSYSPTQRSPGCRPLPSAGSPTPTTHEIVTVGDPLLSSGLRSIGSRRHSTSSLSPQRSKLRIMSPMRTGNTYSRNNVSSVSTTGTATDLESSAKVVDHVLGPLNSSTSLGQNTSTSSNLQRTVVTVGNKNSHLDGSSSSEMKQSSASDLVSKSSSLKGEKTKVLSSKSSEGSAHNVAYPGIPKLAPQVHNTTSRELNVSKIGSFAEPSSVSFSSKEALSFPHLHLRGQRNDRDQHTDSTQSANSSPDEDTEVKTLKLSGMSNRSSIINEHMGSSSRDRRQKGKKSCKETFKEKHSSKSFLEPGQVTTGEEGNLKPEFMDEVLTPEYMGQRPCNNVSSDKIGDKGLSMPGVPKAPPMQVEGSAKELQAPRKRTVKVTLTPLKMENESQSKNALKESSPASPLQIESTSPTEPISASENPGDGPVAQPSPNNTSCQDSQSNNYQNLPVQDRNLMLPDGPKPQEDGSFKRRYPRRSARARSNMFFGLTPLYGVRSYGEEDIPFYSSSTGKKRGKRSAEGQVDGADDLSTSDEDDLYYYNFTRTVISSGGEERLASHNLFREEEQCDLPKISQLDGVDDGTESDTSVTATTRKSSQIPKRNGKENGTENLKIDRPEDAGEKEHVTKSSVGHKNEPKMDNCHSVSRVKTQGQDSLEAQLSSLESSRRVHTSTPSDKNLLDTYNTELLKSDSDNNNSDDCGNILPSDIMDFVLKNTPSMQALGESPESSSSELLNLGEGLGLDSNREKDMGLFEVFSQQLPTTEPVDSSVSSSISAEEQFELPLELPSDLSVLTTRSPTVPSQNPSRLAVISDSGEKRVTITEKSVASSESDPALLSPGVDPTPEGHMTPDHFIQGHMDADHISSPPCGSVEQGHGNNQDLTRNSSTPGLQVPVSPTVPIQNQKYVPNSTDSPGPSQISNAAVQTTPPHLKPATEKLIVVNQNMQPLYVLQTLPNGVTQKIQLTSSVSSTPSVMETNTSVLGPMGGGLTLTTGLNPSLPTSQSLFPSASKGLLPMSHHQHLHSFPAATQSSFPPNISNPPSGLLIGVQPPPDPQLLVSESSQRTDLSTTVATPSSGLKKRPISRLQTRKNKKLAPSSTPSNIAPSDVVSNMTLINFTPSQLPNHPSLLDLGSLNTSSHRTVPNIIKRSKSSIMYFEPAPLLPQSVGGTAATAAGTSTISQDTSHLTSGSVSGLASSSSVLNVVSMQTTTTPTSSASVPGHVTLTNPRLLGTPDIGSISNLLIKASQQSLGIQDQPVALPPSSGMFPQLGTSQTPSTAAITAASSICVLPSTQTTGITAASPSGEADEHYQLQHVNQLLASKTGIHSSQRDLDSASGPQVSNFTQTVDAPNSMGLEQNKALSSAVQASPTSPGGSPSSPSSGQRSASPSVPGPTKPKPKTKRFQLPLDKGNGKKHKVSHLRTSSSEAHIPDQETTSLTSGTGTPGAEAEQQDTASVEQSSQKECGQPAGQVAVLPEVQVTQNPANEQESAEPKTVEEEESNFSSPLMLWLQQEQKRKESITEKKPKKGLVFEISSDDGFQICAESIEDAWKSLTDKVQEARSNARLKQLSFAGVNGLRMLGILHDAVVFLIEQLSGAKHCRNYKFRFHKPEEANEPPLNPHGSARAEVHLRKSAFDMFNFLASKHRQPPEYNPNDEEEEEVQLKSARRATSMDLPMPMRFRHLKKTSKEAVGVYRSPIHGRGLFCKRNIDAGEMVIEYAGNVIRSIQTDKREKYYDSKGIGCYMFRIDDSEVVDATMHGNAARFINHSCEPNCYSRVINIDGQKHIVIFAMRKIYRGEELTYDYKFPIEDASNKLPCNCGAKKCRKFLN

Hit rate of the full screen: of about 290,000 compounds, about 110 (0.038%) were called active. Inconclusive means that the source gave no clear call. Such entries were picked first, then a sample of the others. Calls follow the shape of the dose curve; as a rule, active = well fitted inhibition curve with a large enough effect in the polarisation, with a control signal flat (not every such curve was filed as active); inconclusive = small, poorly fitted or top-dose-only effect, or effect the other way, or a change in a side signal; inactive = no such curve, though single readings can be large or run the other way; the % refers to the polarisation. A potency beside an inconclusive call is a rough fit, not a confirmed value. “Side channel” marks fits to a control or component signal instead of the main read-out.
Each molecule was assayed against Histone-lysine N-methyltransferase 2A (Homo sapiens) (UniProt Q03164) (assay: qHTS Fluorescence Polarization Assay for Inhibitors of MLL CXXC domain - DNA interaction). Conditions: MLL-CXXC / FITC-HOXA9 DNA fluorescence polarization; activity change, negative = inhibition: at 115 µM (top of the series).
Summary of the method: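 Fluorescence polarization: 7 uM MLL-CXXC (stock) preincubated 5 min with compounds, then 50 nM fluorescein-HOX-A9 DNA (stock) added; 30 min ambient. Buffer 50 mM Tris-HCl pH 7.5, 50 mM NaCl, 1 mM DTT, 0.05% BSA.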
Cc1cc(NC(=O)c2cnn3c(C(F)(F)F)cc(-c4ccccc4)nc23)no1 was tested, and the “activity change, negative = inhibition” value was inactive: -11.4%.
O=C(Nc1nnc(SCCN2CCOCC2)s1)C1CC(=O)N(c2ccccc2)C1 (stereo unspecified) was tested, and the Potency was inconclusive: 15.8 µM [fluorescent, side channel, single point].
In the case of CCCC(=O)Nc1nc2ccc(OCC)cc2s1, the “activity change, negative = inhibition” value is reported as inactive: -5.46%.
COc1ccc(C(=O)Cc2cc(OC)c(OC)cc2C(=O)c2ccccc2F)cc1OC was tested, and the Potency was inconclusive: 1 µM [inhibitor, full curve, poor fit].
For Cc1sc(NC(=O)C2CSC3(C)CCC(=O)N23)nc1-c1ccc(F)cc1 (stereo unspecified), the Potency was inconclusive: 31.6 µM [fluorescent, side channel, partial curve].
With O=C(Cc1nc2ccccc2[nH]c1=O)c1ccc(Cl)cc1 the Potency was inconclusive: 5.62 µM [fluorescent, side channel, full curve].
Cn1c(-c2cccc(OCc3ccccc3)c2)nc2c1c(=O)[nH]c(=O)n2Cc1ccccc1 was tested, and the Potency was inconclusive: 17.8 µM [fluorescent, side channel, partial curve].
In the case of CCOC(=O)c1c(N)c(C#N)c2n1CCCC2, the “activity change, negative = inhibition” value is reported as inactive: 4.03%.
For CCC(O)(CC)C(=O)NN(C(=O)CCl)c1ccccc1, the Potency was inconclusive: 35.5 µM [fluorescent, side channel, single point].
For CN1C(=O)Cc2cc(S(=O)(=O)NCc3c(F)cccc3Cl)ccc21, the “activity change, negative = inhibition” value was inactive: -9.94%.
In the case of CCOC(=O)c1ccc(N(C(=O)CNC(=O)c2ccco2)C(C(=O)NCC2CCCO2)c2ccc(OC)c(OC)c2)cc1 (stereo unspecified), the Potency is reported as inconclusive: 79.4 µM [quencher, side channel, single point].
COc1ccccc1-c1cc(C(F)(F)F)nc(S(=O)(=O)CCCC(=O)Nc2cccnc2Cl)n1 was tested, and the Potency was inconclusive: 31.6 µM [quencher, side channel, partial curve].
For Cc1ccc(SCC(=O)NCCCc2ccccc2)cc1, the Potency was inconclusive: 35.5 µM [inhibitor, single point].
In the case of O=[N+]([O-])c1ccc(CS(=O)(=O)c2ncn[nH]2)cc1, the Potency is reported as inconclusive: 39.8 µM [fluorescent, side channel, single point].
Cc1ccc(NCc2ccc(O)c3ncccc23)cc1 was tested, and the “activity change, negative = inhibition” value was inactive: 10.7%.
NNC(=S)Nc1c(F)cc(F)cc1Br was tested, and the Potency was inconclusive: 7.94 µM [quencher, side channel, full curve, poor fit].
Brc1ccc(C2=CC(c3ccco3)n3ncnc3N2)cc1 (stereo unspecified) was tested, and the Potency was inconclusive: 39.8 µM [fluorescent, side channel, single point].
With CN(CCNC(=O)C1CCC(=O)N(Cc2ccc(Cl)cc2)C1)CCc1ccccc1 (stereo unspecified) the Potency was inconclusive: 11.2 µM [quencher, side channel, single point].
In the case of COc1cc2cc(-c3ccc(O)cc3O)nc(C)c2cc1OC, the Potency is reported as inconclusive: 35.5 µM [quencher, side channel, single point].
CCN(CC)c1ccc2c(-c3ccc(S(=O)(=O)O)cc3S(=O)(=O)[O-])c3ccc(=[N+](CC)CC)cc-3oc2c1 was tested, and the Potency was inconclusive: 14.1 µM [fluorescent, side channel, single point].
In the case of COc1ccc(C)cc1Nc1n[n+](-c2ccccc2)c(-c2cccc(Cl)c2Cl)s1, the Potency is reported as inconclusive: 39.8 µM [quencher, partial curve].
In the case of CS(=O)(=O)N(CC(=O)Nc1ccccc1C(=O)N1CCOCC1)c1ccc(F)c(Cl)c1, the Potency is reported as inconclusive: 10 µM [inhibitor, full curve, poor fit].
O=C(NCC(c1cccs1)N1CCOCC1)c1ccccc1NS(=O)(=O)c1cccc([N+](=O)[O-])c1 (stereo unspecified) was tested, and the Potency was inconclusive: 15.8 µM [quencher, side channel, single point].
For CC(=O)NC(C(=O)N1CCC(c2nc3ccccc3s2)CC1)C(C)C (stereo unspecified), the Potency was inconclusive: 14.1 µM [fluorescent, side channel, single point].
In the case of Cc1c(-c2cccc(Cl)c2)nc2ccccc2c1C(=O)OC/C(O)=C(\C#N)c1nc2ccccc2[nH]1, the Potency is reported as inconclusive: 8.91 µM [fluorescent, side channel, partial curve].
In the case of O=C(c1ccccc1-c1nc2ccccc2[nH]1)N1CCCCC1, the “activity change, negative = inhibition” value is reported as inactive: 5.49%.
In the case of COc1cc(/C=C/c2sc3ccccc3[n+]2CCCS(=O)(=O)[O-])ccc1O, the Potency is reported as inconclusive: 25.1 µM [fluorescent, side channel, partial curve].
In the case of Cc1cc(C)c2c(c1)C1(OCCO1)C(=O)N2, the Potency is reported as inconclusive: 79.4 µM [fluorescent, side channel, single point].
With Clc1ccsc1-c1ccnc(-n2cccc2)n1 the Potency was inconclusive: 31.6 µM [fluorescent, side channel, single point].
In the case of CC1=CC(C)[C@@H]2COC(c3ccc(O)cc3)[C@H]1C2C (stereo partly specified), the “activity change, negative = inhibition” value is reported as inactive: 7.07%.
In the case of CN1CCCN(C(=O)c2ccccc2Cl)CC1, the Potency is reported as inconclusive: 89.1 µM [fluorescent, side channel, single point].
In the case of CCSc1nnc(NC(=O)c2ccc3ccccc3n2)s1, the “activity change, negative = inhibition” value is reported as inactive: -2.9%.
With CCOc1ccc(N2CC(C(=O)Nc3ccc(OC)c(S(=O)(=O)N4CCCCC4)c3)CC2=O)cc1 (stereo unspecified) the “activity change, negative = inhibition” value was inactive: -11.6%.
For COc1ccc(/C=C2\SC(=S)N(CCCC(=O)Nc3ccccn3)C2=O)cc1OC, the Potency was inconclusive: 89.1 µM [fluorescent, side channel, partial curve].
Cn1cnnc1Sc1cc(N2CCN(S(=O)(=O)c3ccc4ccccc4c3)CC2)ccc1[N+](=O)[O-] was tested, and the “activity change, negative = inhibition” value was inactive: 8.39%.
With COc1ccc(-c2csc(N(CCCN(C)C)C(=O)c3ccc(C)cc3)n2)cc1 the Potency was inconclusive: 31.6 µM [quencher, side channel, partial curve].
C=Cc1ccc(N=Cc2c(O)ccc3ccccc23)cc1 was tested, and the Potency was inconclusive: 20 µM [fluorescent, side channel, partial curve].
With CC1NC(=O)NC1CCCCCC(=O)Nc1ccc(F)c(Cl)c1 (stereo unspecified) the “activity change, negative = inhibition” value was inactive: 16.6%.
COc1ccccc1NC(=O)c1ccccc1Nc1ccccc1 was tested, and the Potency was inconclusive: 39.8 µM [quencher, side channel, single point].
COc1ccc(-c2nc(C#N)c(NCc3ccco3)o2)cc1 was tested, and the Potency was inconclusive: 31.6 µM [fluorescent, side channel, partial curve].
With COC(=O)c1cccc(NC(=S)Nc2cccc(Cl)c2Cl)c1 the Potency was inconclusive: 1.41 µM [quencher, side channel, partial curve, poor fit].
O=C1N=c2ccccc2=C1c1sc(Nc2cccc(O)c2)nc1O was tested, and the “activity change, negative = inhibition” value was inactive: 31.2%.
In the case of CCN(CC)CCCNc1nc2cc(OC)c(OC)cc2c2nc(-c3ccccc3)nn12, the Potency is reported as inconclusive: 31.6 µM [quencher, side channel, partial curve].
With CC1=CC2=NC(=O)/C(=C/c3coc4ccc(Cl)cc4c3=O)C(=N)N2O1 the Potency was inconclusive: 22.4 µM [fluorescent, side channel, partial curve].
With CCOC(=O)c1c(N2C(=O)Nc3ccccc3N2O)sc2c1CCCC2 the Potency was inconclusive: 14.1 µM [inhibitor, single point].
In the case of Cc1ccc(C(C)C)c(OCc2ccc(C(=O)N/N=C/c3cccc(O)c3O)cc2)c1, the Potency is reported as inconclusive: 7.08 µM [fluorescent, side channel, full curve].
In the case of Cc1cccc(-c2cc(C(=O)Nc3sc(C)c(C)c3C(N)=O)c3ccccc3n2)c1, the Potency is reported as inconclusive: 70.8 µM [fluorescent, side channel, single point].
For CCCc1cc(=O)oc2cc(C)cc(OCc3nn[nH]n3)c12, the “activity change, negative = inhibition” value was inactive: -0.163%.
In the case of O=[N+]([O-])c1ccc(N2N=C(c3ccccc3)CC2c2ccccc2O)cc1 (stereo unspecified), the Potency is reported as inconclusive: 10 µM [fluorescent, side channel, full curve].
CCN(CC)c1ccc2cc(S(=O)(=O)c3ccc(Cl)cc3)c(=O)oc2c1 was tested, and the Potency was inconclusive: 39.8 µM [fluorescent, side channel, partial curve].
With Cc1ccc(C)c(S(=O)(=O)c2c(N)n(/N=C/c3ccco3)c3nc4ccccc4nc23)c1 the “activity change, negative = inhibition” value was inactive: 11.6%.
In the case of O=C(/C=C/c1ccccc1)NCCCNC(=O)/C=C/c1ccccc1, the Potency is reported as inconclusive: 15.8 µM [fluorescent, side channel, full curve, poor fit].
COc1ccccc1/C=C(/NC(=O)c1ccccc1)C(=O)NCCN1CCOCC1 was tested, and the “activity change, negative = inhibition” value was inactive: 13.5%.
O=C1CCCC2=C1C(c1ccco1)Nc1ccc3ccccc3c12 (stereo unspecified) was tested, and the “activity change, negative = inhibition” value was inactive: 1.16%.
For CC(C)c1nc(NCCO)c2nnn(Cc3ccccc3)c2n1, the Potency was inconclusive: 31.6 µM [inhibitor, partial curve, poor fit].
COc1ccc(NS(=O)(=O)c2ccc(OC)c(NC(=O)CCC3CCCC3)c2)cc1 was tested, and the Potency was inconclusive: 15.8 µM [fluorescent, side channel, partial curve].
N#Cc1c(N2CCCC2)nc(N)c2c(N)nc(N3CCCC3)cc12 was tested, and the Potency was inconclusive: 28.2 µM [quencher, side channel, partial curve].
For COc1ccc(CN2CCN(Cc3ccc(C(F)(F)F)cc3)CC2)c(OC)c1, the “activity change, negative = inhibition” value was inactive: -4.63%.
CCC(Sc1nc(C)cc(=O)[nH]1)C(=O)Nc1nc(-c2ccccc2)cs1 (stereo unspecified) was tested, and the Potency was inconclusive: 3.16 µM [inhibitor, full curve, poor fit].
In the case of CCOC(=O)Cc1csc(/N=C/c2c(O)n(-c3ccccc3C(F)(F)F)c(=O)c3ccccc23)n1, the Potency is reported as inconclusive: 14.1 µM [inhibitor, single point].
For COc1ccc(N(C)S(=O)(=O)c2c(C)[nH]c(=O)[nH]c2=O)c(OC)c1, the Potency was inconclusive: 8.91 µM [fluorescent, side channel, single point].
Potency is read from the fitted curve at half-maximal effect.
